Experimental findings from publication PMC10163288 are described below.

To fix the notation:
B1: il10ra_site1_normal_mot_HHH_b2_00612_000000251_0001_1_14_H_._HHH_b1_08548_0001_0000300017_0000002_0_af2pred_0001 (protein)
chain: SSSSDEEFERVRKLLEKVSELARNGNPEEAQKVAEEALEVAEEAGNELLRRAVEYLLKLVSSSSS
B2: il10ra_site1_sap_20_mot_HHH_b2_06430_000000048_0001_41_58_H_._HHH_b1_00495_af2_0001_0000900026_0000001_0_0001 (protein)
chain: SSSDTEQRVAELLFRAVELLAKGNPEEAEKLVEEAERLAEELNDPELERYVEILLRFVKAHSSSS
B3: il10ra_site1_sap_22_mot_HHH_b1_03094_000000294_0001_1_20_H_._HHH_b1_03552_af2_0001_0000400024_0000001_0_0001 (protein)
chain: SSSSDEEELVEAAARLVEQALEHGDKESARFHLWAIRLAVEELGDEELERLLEELEELIERSSSS
B4: il10ra_site1_normal_mot_HHH_b2_04646_000000019_0001_1_20_H_._HHH_b2_05789_af2_0001_0000400029_0000001_0 (protein)
chain: SSSSSDEEEAREEAERLLEEAEQIEDRHEVARLLYRASRLAAEGQDDELARRLVKLFARLSSSSS
B5: il10ra_site1_normal_mot_HHH_b2_01705_af2_000000069_0001_44_57_H_._HHH_b1_04218_af2_0001_0000400020_0000001_0 (protein)
chain: SSSSSSDSEELLEEAEELLKEIKDPEERTEVYRKFAEELVELGDREAIERLSELFIRASSSSSSS
B6: il10ra_site1_normal_mot_HHH_b1_02397_af2_000000085_0001_39_57_H_._HHH_b2_06806_af2_0001_0000200014_0000002_0 (protein)
chain: SSSSDEEKEKLEELLKELEELIEEGDQEKFARLVQEVLRLAFKLRDEEVLKAVWELMELFISSSS
B7: il10ra_site1_normal_mot_HHH_b2_04680_000000215_0001_1_16_H_._HHH_b2_01495_0001_0000300034_0000001_0 (protein)
chain: SSSSTEETREAYRLLREAFEFLQRGDPEQARELLEEAERLLEEAGNEAALFSVRLALEALDSSSS
B8: il10ra_site1_sap_16_mot_HHH_b2_01986_af2_000000130_0001_1_18_H_._HHH_b2_06750_0001_0000100006_0000001_0_0001 (protein)
chain: SSSSDEEEQELIEAAKRLARLLIRGNKEEVERLLEEVERLAEELNDERFLKILEDLKRALSSSSS
B9: il10ra_site1_sap_20_mot_HHH_b2_08004_000000101_0001_1_17_H_._HHH_b2_06414_af2_0001_0000200009_0000001_0_0001_af2pred_0001 (protein)
chain: SSSSDVREEVEELFEEAQELIEKGNPEEALKLVHRMSELAREARDKELARLVLEIAKLLNKSSSS
B10: il10ra_site1_normal_mot_HHH_b1_00999_000000080_0001_41_55_H_._HHH_b2_07269_0001_0000100005_0000001_0 (protein)
chain: SSSSDVEERVEKLLEEAEELAEEGDREEVIRLALEAVQIAFKNNNQELLQLIWEVVKELGSSSSS
B11: il10ra_site1_sap_12_mot_HHH_b1_02997_000000220_0001_39_52_H_._6901b4206402d3583e87baab01b64579_0001_1_af2_0001_0000100001_0000001_1_0001_af2pred_0001 (protein)
chain: SSSSSDREELEEEAEELMKELEREGDPKLFTRLVRLAKLLAELGNPLFEEVAKLLVELISSSSSS
B12: il10ra_site1_normal_mot_3bd581f07f1b12bbb9d960ae430c4d98_0001_000000069_0001_53_65_H_._HHH_b2_08143_0001_0000300019_0000001_0_af2pred_0001 (protein)
chain: SSSSSSEEEEIVEELVEEFGLSEEQQKALEYLAEYLKELGASEEEIEESLEVAARLLRLASSSSS
B13: il10ra_site1_normal_mot_HHH_b2_07521_000000141_0001_20_37_H_._HHH_b1_07534_0001_0000100004_0000001_1 (protein)
chain: SSSSSDEEYIELSLRFLEWLLREGDEEAARRIFRAIEDLIKSINDEELQRRLEELEEEIHSSSSS
B14: il10ra_site1_sap_22_mot_HHH_b2_02933_000000199_0001_1_19_H_._HHH_b1_02427_0001_0000400047_0000001_0_0001 (protein)
chain: SSSSNFVLRVLERVIERLIKLGNLEKAEIQAEEAIKHLRDAGDEEAVERLEELLEEIRELGSSSS
B15: il10ra_site1_sap_25_mot_39a7b8d0c4c3fc04bafbda6ce6101d3a_0001_1_af2_000000014_0001_34_48_H_._HHH_b1_07414_0001_0000400029_0000001_0_0001 (protein)
chain: SSSSSSEEREEFRRLEEELEEAKSADEWYEIAKRLIEVAAEANDPELARLVMELIREHLRSSSSS
B16: il10ra_site1_normal_mot_0cd074c2d6d3de76f1399c5a775575d2_0001_1_af2_000000000_0001_16_30_H_._HHH_b1_05697_af2_0001_0000500024_0000001_0_af2pred_0001 (protein)
chain: SSSSDEERLRELVEELVKELGLSERAQEILEISLEILLELGVDEREIERLLRILARDLAAQSSSS
B17: il10ra_site1_normal_mot_HHH_b1_03859_af2_000000004_0001_44_57_H_._HHH_b2_01252_0001_0000200002_0000001_0 (protein)
chain: SSSSSDEEEVERYVRLALRFAKRLEDERARRLLLRAAEEIAKRGNNPELEELVRKVAEELSSSSS
B18: il10ra_site1_sap_21_mot_HHH_b2_04681_000000155_0001_43_57_H_._HHH_b1_05531_0001_0000100005_0000001_0_0001_af2pred_0001 (protein)
chain: SSSSSLSERVAELLRRALEAERNGNPEEAERLLEEAKELAEENNNELIRIIIEYLERLLKRSSSS

This is one part of the list.

This assay addresses il10ra, Q13651. Put plainly: yeast display titration.
Regarding B1, the “apparent Kd” value was “inactive: no binding seen”.

Turning to B2, the “apparent Kd” value was “inactive: no binding seen”.

For the molecule B3, the “apparent Kd” value was “inactive: no binding seen”.

Regarding B4, the “apparent Kd” value was “inactive: no binding seen”.

Take B5: the “apparent Kd” value was “inactive: no binding seen”.

Take B6: the “apparent Kd” value was “inactive: no binding seen”.

On to B7, for which the “apparent Kd” value is “inactive: no binding seen”.

Regarding B8, the “apparent Kd” value is “inactive: no binding seen”.

As for B9, the “apparent Kd” value is “inactive: no binding seen”.

For the molecule B10, the “apparent Kd” value is “inactive: no binding seen”.

With B11, the “apparent Kd” value is “inactive: no binding seen”.

For the molecule B12, the “apparent Kd” value is “inactive: no binding seen”.

Consider B13, for which the “apparent Kd” value was “inactive: no binding seen”.

In the case of B14, the “apparent Kd” value was “inactive: no binding seen”.

For the molecule B15, the “apparent Kd” value is “inactive: no binding seen”.

Turning to B16, the “apparent Kd” value is “inactive: no binding seen”.

B17: the “apparent Kd” value was “inactive: no binding seen”.

With B18, the “apparent Kd” value is “inactive: no binding seen”.
